Laboratory results as given in US7097982 (IMMUNOGEN, dated 2006).
No constants are given. Whether binding was seen depends on the method and setting. In cells and extracts the contact can be indirect. Some entries that bind do so weakly or less than the wild type.

By UniProt entry, the sequences of proteins in these tests, tags left out.
UniProt Q07817: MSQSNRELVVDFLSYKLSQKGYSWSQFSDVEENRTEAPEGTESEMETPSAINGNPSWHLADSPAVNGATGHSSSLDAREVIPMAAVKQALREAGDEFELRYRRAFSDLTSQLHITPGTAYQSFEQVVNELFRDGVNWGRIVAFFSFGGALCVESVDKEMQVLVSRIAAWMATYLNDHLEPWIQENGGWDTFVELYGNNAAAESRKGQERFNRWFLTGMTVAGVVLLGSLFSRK

Columns and labels:
Flag tag-Bcl-xL [1] = target: T1, Flag tag-Bcl-xL (UniProt Q07817 1-233); experiment: co-immunoprecipitation from transfected COS cells
T1 construct: Expressed in transfected COS cells; also called Flag-Bcl-xL

Flag tag-Bcl-xL [2] = target: T1, Flag tag-Bcl-xL; experiment: co-immunoprecipitation from transfected cells

B1: Bip1a (other, UniProt Q13323 1-160, looked up)
chain: MSEVRPLSRDILMETLLYEQLLEPPTMEVLGMTDSEEDLDPMEDFDSLECMEGSDALALRLACIGDEMDVSLRAPRLAQLSEVAMHSLGLAFIYDQTEDIRDVLRSFMDGFTTLKENIMRFWRSPNPGSWVSCEQVLLALLLLLALLLPLLSGGLHLLLK
notes: Used in vitro translated and 35S labeled, and expressed in transfected COS cells; also called in vitro translated, 35S labeled Bip1a
Flag tag-Bcl-xL [1]
  binding: binds
Flag tag-Bcl-xL [2]
  binding: binds
